Measurements taken from the supplement of paper PMC10338343.
± gives the standard deviation. The list shows a part of the results, in another mix than the full data. Many of these values have a large error. This is one part of the list.

Experiments:
[1] = tested on: MILI (PIWIL2) piRISC loaded with L1MC piRNA (26 nt); assay: pre-steady-state target cleavage rate (min^-1); higher = faster piRNA-guided slicing of the target; conditions: guide: L1MC piRNA 5'p-UAACUAAAUACUAUGCAAGCUGUAGG
Procedure, shortened: (§1)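 The pre-steady-state cleavage rate was obtained by Cleave-'n-Seq with a burst-and-steady-state fit. A transcribed, DNA-blocked target RNA library (0.1 nM) was mixed with 1 nM active affinity-purified piRISC carrying one synthetic guide, with or without 500 nM GTSF1 partner protein, in HEPES–potassium acetate buffer at 33 °C for 0–8 or 0–960 min. Uncleaved targets were sequenced and normalised to depth and to weakly complementary targets, with three trials pooled and k3 capped at 0.0001 min^-1.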

[2] = tested on: MIWI (PIWIL1) piRISC loaded with L1MC piRNA (30 nt); assay: as above; conditions: guide: L1MC piRNA 5'p-UAACUAAAUACUAUGCAAGCUGUAGGUCCU; auxiliary factor: none (no GTSF1)
Procedure, shortened: as §1

[3] = tested on: EfPiwi piRISC loaded with L1MC piRNA (26 nt); assay: pre-steady-state target cleavage rate (min^-1); guide: L1MC piRNA 5'p-UAACUAAAUACUAUGCAAGCUGUAGG; MIWI and MILI are mouse PIWI proteins and EfPiwi is from a freshwater sponge; tags in brackets are library labels; higher = faster piRNA-guided slicing of the target
Procedure, shortened: as §1

[4] = auxiliary factor: 500 nM mouse GTSF1
[5] = auxiliary factor: none (no GTSF1)
[6] = auxiliary factor: 500 nM Ephydatia muelleri Gtsf1
[7] = auxiliary factor: none (no Gtsf1)

UCCUCCUACAGGAAGCAUAGUAUUUUCAAA
pre-steady-state target cleavage rate [1, 4]: 0.0352 ± 0.012 | pre-steady-state target cleavage rate [1, 5]: 0.000246 ± 0.0096 | pre-steady-state target cleavage rate [2]: 0.000242 ± 0.013 | pre-steady-state target cleavage rate [3, 6]: 0.000244 ± 0.011 | pre-steady-state target cleavage rate [3, 7]: 0.00013 ± 0.039

UCCUGGAUGUCCUAGCAUAGUAUUUAGAUA
pre-steady-state target cleavage rate [1, 4]: 0.0302 ± 0.007 | pre-steady-state target cleavage rate [1, 5]: 0.00198 ± 0.0029 | pre-steady-state target cleavage rate [2]: 0.00149 ± 0.0041 | pre-steady-state target cleavage rate [3, 6]: 0.00155 ± 0.0048 | pre-steady-state target cleavage rate [3, 7]: 0.000525 ± 0.013

UCCUGGAUGUCGAUGCAUAGUAGUUAGUUA
pre-steady-state target cleavage rate [1, 4]: 0.0193 ± 0.005 | pre-steady-state target cleavage rate [1, 5]: 0.00415 ± 0.0021 | pre-steady-state target cleavage rate [2]: 0.00102 ± 0.0046 | pre-steady-state target cleavage rate [3, 6]: 0.00338 ± 0.0034 | pre-steady-state target cleavage rate [3, 7]: 0.000534 ± 0.017

UCCUGGAACAGCUUGCAUAGUAUUUGAGUUA
pre-steady-state target cleavage rate [1, 4]: 0.209 ± 0.035 | pre-steady-state target cleavage rate [1, 5]: 0.00299 ± 0.003 | pre-steady-state target cleavage rate [3, 6]: 0.00552 ± 0.0019 | pre-steady-state target cleavage rate [3, 7]: 0.000845 ± 0.01

UCCUGGAAGUCCUUGCAUAGUAUUUACAAA
pre-steady-state target cleavage rate [1, 4]: 0.0598 ± 0.018 | pre-steady-state target cleavage rate [1, 5]: 0.001 ± 0.0066 | pre-steady-state target cleavage rate [2]: 0.00154 ± 0.0049 | pre-steady-state target cleavage rate [3, 6]: 0.00121 ± 0.0048 | pre-steady-state target cleavage rate [3, 7]: 0.000284 ± 0.019

UCCUGGAUGUCCUAUGCAUAGUAUUUAGUUA
pre-steady-state target cleavage rate [1, 4]: 0.0987 ± 0.02 | pre-steady-state target cleavage rate [1, 5]: 0.00575 ± 0.0022 | pre-steady-state target cleavage rate [3, 6]: 0.00508 ± 0.0022 | pre-steady-state target cleavage rate [3, 7]: 0.000951 ± 0.008

UCCUGGAUGUCGUUGCUUUGUAUUUAGUUA
pre-steady-state target cleavage rate [1, 4]: 0.00191 ± 0.0058 | pre-steady-state target cleavage rate [1, 5]: 0.00172 ± 0.0049 | pre-steady-state target cleavage rate [2]: 0.000697 ± 0.0097 | pre-steady-state target cleavage rate [3, 6]: 0.000178 ± 0.029 | pre-steady-state target cleavage rate [3, 7]: 0.000202 ± 0.04

UCCUGGAACAGCAUGCAUACUAUUUAGUUA
pre-steady-state target cleavage rate [1, 4]: 0.0727 ± 0.0093 | pre-steady-state target cleavage rate [1, 5]: 0.00273 ± 0.0026 | pre-steady-state target cleavage rate [3, 6]: 0.00762 ± 0.0026 | pre-steady-state target cleavage rate [3, 7]: 0.000809 ± 0.011

UCCUCCUACAGCUUGCAUAGUAAUUACAAA
pre-steady-state target cleavage rate [1, 4]: 0.18 ± 0.039 | pre-steady-state target cleavage rate [1, 5]: 0.00142 ± 0.0043 | pre-steady-state target cleavage rate [2]: 0.000522 ± 0.011 | pre-steady-state target cleavage rate [3, 6]: 0.00353 ± 0.0025 | pre-steady-state target cleavage rate [3, 7]: 0.000553 ± 0.011

UCCUGGAUGUCGUUGCAUAGUAUUAGUUA
pre-steady-state target cleavage rate [1, 4]: 0.00178 ± 0.0046 | pre-steady-state target cleavage rate [1, 5]: 0.000608 ± 0.011 | pre-steady-state target cleavage rate [2]: 0.00107 ± 0.0051 | pre-steady-state target cleavage rate [3, 6]: 0.000255 ± 0.021 | pre-steady-state target cleavage rate [3, 7]: 0.00039 ± 0.021

UCCUGGAUGUCGAAGCAUAGAUAUUUAGUUA
pre-steady-state target cleavage rate [1, 4]: 0.00103 ± 0.0062 | pre-steady-state target cleavage rate [1, 5]: 0.000442 ± 0.011 | pre-steady-state target cleavage rate [2]: 0.000653 ± 0.011 | pre-steady-state target cleavage rate [3, 6]: 0.000269 ± 0.011 | pre-steady-state target cleavage rate [3, 7]: < 0.0001
